Source: article PMC10206184
Results are given in words; binding and its absence hold for the method and conditions named. Binding seen in cells or lysates may run through a third protein. Some binding calls cover weakened binding; strength is not graded here. Tags and fused reporters may be left off the sequences shown.

Tests used:
SmgGDS-558-HA (human) = molecular target: T1, SmgGDS-558-HA (human) (UniProt P52306); experiment: co-IP; HEK293T cells co-transfected with SmgGDS-558-HA or SmgGDS-607-HA, myc-tagged RAC1 or RAC1B and increasing amounts of DIRAS1 cDNA and/or empty vector (equal total cDNA); after 24 h lysate immunoprecipitated with the HA antibody; immunoblotting with HA and myc antibodies
T1 sequence: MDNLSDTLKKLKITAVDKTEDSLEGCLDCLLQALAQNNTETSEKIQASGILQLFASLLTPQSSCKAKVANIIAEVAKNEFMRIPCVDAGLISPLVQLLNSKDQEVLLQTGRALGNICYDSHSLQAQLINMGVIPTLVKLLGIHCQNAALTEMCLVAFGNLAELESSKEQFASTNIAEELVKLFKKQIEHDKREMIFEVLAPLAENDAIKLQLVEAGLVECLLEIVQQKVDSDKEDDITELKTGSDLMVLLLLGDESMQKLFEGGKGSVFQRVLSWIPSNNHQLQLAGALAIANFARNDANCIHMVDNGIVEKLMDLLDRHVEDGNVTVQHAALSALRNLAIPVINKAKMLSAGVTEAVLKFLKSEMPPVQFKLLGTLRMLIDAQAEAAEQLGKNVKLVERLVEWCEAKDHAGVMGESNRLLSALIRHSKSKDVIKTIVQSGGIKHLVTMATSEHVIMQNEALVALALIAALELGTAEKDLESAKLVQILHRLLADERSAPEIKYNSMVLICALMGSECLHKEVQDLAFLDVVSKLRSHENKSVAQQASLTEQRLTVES

SmgGDS-607-HA (human) = molecular target: T2, SmgGDS-607-HA (human) (UniProt P52306); experiment: as above
T2 sequence: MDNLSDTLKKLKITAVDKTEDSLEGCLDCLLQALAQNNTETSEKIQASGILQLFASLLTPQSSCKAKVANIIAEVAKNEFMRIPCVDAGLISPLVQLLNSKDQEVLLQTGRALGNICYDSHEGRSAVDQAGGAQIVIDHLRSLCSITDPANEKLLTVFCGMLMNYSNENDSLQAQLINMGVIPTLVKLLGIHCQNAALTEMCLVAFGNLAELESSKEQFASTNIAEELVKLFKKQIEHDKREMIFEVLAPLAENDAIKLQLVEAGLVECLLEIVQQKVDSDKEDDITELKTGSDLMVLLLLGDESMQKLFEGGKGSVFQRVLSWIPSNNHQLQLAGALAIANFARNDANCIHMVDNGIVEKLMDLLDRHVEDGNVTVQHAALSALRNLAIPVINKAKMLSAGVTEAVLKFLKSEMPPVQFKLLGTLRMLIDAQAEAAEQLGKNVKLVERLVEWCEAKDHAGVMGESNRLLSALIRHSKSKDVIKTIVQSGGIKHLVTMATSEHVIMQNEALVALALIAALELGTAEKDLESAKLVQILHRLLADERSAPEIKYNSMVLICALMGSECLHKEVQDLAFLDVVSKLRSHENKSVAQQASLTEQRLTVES

B1: DIRAS1 (protein, UniProt O95057 1-198)
chain: MPEQSNDYRVVVFGAGGVGKSSLVLRFVKGTFRDTYIPTIEDTYRQVISCDKSVCTLQITDTTGSHQFPAMQRLSISKGHAFILVFSVTSKQSLEELGPIYKLIVQIKGSVEDIPVMLVGNKCDETQREVDTREAQAVAQEWKCAFMETSAKMNYNVKELFQELLTLETRRNMSLNIDGKRSGKQKRTDRVKGKCTLM
SmgGDS-558-HA (human)
  binding: binds
SmgGDS-607-HA (human)
  binding: binds
